Laboratory results from article PMC11629678.
No constants are given. Whether binding was seen depends on the method and setting. Binding seen in cells or lysates may run through a third protein. Some entries that bind do so weakly or less than the wild type.

Protein sequences, listed by entry. Tags and fused reporters are not part of them. Lines headed by an entry give the natural chain unless they say otherwise; changes in a name come on top. Residues count along the entry.
UniProt P02042: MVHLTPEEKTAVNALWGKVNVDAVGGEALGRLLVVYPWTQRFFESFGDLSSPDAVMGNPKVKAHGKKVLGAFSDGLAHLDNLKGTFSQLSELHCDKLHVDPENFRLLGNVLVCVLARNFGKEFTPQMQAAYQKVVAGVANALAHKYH
UniProt P05556: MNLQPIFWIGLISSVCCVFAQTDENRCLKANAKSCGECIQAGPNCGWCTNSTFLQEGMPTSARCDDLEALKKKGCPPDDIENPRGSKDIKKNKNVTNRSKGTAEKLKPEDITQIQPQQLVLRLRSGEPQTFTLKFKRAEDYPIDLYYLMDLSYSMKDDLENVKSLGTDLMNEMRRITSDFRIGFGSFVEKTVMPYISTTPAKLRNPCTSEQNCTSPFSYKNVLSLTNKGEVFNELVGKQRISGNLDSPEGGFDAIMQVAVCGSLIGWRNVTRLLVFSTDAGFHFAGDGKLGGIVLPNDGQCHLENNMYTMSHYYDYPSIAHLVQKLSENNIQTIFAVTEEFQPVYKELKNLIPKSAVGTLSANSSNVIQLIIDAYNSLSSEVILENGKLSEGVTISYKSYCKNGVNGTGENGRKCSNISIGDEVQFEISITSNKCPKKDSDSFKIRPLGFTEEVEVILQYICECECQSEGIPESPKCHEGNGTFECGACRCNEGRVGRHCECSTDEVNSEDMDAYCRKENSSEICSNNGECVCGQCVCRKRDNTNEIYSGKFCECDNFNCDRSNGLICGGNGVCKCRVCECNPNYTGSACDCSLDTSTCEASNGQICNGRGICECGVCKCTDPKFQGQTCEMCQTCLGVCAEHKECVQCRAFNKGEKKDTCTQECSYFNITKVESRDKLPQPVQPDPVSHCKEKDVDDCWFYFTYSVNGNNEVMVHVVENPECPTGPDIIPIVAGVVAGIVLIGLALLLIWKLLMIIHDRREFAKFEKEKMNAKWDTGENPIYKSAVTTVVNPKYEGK
UniProt Q13349, residues 18-1161: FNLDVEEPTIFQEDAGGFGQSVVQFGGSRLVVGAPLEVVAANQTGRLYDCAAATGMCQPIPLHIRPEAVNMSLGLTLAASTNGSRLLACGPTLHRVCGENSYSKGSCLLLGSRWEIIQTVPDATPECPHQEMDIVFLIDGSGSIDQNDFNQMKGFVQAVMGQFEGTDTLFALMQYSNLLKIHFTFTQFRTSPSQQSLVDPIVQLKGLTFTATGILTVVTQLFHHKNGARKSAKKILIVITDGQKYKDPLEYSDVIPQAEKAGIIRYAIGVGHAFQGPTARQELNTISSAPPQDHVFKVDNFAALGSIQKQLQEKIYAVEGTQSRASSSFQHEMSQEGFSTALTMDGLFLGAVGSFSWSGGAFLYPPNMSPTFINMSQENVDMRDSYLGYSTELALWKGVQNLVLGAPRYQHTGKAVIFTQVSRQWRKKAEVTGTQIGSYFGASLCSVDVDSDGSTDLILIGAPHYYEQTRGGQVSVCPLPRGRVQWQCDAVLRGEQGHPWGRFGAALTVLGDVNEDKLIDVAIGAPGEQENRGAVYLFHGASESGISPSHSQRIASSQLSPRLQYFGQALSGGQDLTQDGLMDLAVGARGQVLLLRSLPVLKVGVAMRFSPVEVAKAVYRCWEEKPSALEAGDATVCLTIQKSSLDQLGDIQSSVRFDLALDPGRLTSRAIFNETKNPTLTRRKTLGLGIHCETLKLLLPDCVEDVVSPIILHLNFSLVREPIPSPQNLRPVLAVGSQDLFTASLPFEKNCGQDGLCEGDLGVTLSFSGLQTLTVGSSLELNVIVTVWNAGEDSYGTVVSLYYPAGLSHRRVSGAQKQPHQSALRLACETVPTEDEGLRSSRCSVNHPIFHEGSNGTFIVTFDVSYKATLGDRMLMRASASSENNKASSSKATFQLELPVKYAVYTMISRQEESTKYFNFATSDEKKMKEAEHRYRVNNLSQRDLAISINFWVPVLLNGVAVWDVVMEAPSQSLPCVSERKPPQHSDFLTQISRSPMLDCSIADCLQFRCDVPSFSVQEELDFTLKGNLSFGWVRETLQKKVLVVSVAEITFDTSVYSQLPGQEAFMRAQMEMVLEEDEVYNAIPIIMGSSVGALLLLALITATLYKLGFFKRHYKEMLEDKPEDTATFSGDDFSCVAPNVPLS

What was measured:
[1] = target: hemoglobin δ (human (endogenous in Colo205)) (UniProt P02042); test: co-IP; Hb antibody (Thermo Fisher Scientific) on protein G Sepharose, 45 min at RT; lysates of Colo205 cells grown under normoxia; blot with αD antibody
[2] = target: hemoglobin δ (human (endogenous in Colo205)) (UniProt P02042); test: co-IP; Hb antibody (Thermo Fisher Scientific) on protein G Sepharose, 45 min at RT; lysates of Colo205 cells grown under hypoxia; blot with αD antibody
[3] = target: integrin β1 chain (human (endogenous in Colo205)) (UniProt P05556); test: co-IP; integrin β1 antibodies (Santa Cruz and BD Biosciences) on protein G Sepharose, overnight at 4°C; RIPA lysates of Colo205 cells grown under hypoxia; blot with integrin αD antibody

binding [2]: binds
binding [3]: binds
Substance: integrin αD polypeptide (from UniProt Q13349 18-1161) (receptor)
binding [1]: no binding (condition: cells grown under normoxia)
